Assay results taken from the supplement of paper PMC10849652.
The list shows a part of the results.

By UniProt entry, the sequences of proteins in these tests, tags left out. Where a name states a change or a piece, a line headed by the entry shows the natural chain unless it says otherwise.
UniProt Q9P032: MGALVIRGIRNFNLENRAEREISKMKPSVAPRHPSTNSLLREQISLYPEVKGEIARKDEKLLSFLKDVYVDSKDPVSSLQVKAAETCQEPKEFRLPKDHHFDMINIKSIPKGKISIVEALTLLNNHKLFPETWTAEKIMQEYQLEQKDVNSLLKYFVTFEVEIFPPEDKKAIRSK
UniProt O75489, whole entry, looked up: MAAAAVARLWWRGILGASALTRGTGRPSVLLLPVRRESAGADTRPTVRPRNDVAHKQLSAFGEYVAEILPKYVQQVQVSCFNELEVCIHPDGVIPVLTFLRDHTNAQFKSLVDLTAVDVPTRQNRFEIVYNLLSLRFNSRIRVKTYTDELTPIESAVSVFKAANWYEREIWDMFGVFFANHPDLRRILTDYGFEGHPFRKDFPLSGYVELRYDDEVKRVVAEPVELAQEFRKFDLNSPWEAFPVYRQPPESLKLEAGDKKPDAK
UniProt Q92692, whole entry, looked up: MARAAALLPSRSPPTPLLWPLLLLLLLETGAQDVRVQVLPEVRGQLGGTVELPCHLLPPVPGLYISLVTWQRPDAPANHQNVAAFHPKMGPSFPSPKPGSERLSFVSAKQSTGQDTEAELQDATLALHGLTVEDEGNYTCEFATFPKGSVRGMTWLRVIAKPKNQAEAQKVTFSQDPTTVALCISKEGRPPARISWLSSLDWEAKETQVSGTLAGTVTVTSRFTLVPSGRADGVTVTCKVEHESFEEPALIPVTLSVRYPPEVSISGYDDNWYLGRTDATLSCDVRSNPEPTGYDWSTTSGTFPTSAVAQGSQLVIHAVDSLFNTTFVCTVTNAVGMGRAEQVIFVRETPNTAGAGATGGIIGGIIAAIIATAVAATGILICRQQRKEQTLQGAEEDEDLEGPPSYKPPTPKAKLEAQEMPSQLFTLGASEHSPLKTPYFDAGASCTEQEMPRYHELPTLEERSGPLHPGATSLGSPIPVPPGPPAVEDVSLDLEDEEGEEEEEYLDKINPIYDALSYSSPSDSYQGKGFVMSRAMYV
UniProt O95644: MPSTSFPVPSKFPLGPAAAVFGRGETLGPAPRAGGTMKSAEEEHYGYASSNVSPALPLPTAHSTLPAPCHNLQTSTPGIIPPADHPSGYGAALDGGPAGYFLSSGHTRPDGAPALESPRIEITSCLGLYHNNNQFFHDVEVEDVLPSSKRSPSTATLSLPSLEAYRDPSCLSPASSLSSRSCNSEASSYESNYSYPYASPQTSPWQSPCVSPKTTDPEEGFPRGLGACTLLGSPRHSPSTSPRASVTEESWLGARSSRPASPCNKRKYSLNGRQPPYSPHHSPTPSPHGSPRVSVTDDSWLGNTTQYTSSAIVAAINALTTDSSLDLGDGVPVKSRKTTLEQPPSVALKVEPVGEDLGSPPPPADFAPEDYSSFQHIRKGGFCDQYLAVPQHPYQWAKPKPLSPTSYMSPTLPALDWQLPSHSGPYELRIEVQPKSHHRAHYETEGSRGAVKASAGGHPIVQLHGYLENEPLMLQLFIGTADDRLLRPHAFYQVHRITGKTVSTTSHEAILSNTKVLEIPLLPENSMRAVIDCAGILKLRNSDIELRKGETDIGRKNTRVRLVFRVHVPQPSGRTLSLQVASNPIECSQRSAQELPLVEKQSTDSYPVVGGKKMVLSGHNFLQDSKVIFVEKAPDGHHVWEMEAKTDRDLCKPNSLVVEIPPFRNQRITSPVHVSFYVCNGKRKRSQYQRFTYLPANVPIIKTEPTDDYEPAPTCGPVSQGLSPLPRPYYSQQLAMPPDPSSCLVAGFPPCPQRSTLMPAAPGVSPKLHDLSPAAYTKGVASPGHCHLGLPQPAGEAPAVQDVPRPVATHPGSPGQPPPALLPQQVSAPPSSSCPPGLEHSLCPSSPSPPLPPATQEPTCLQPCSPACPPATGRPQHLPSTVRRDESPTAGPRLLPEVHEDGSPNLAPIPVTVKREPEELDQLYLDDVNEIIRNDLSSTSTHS
UniProt Q9NX24: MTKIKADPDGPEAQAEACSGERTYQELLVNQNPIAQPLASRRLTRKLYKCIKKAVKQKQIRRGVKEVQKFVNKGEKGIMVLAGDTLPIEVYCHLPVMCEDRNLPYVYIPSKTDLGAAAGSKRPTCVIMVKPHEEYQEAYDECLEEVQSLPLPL
UniProt Q8NCF5: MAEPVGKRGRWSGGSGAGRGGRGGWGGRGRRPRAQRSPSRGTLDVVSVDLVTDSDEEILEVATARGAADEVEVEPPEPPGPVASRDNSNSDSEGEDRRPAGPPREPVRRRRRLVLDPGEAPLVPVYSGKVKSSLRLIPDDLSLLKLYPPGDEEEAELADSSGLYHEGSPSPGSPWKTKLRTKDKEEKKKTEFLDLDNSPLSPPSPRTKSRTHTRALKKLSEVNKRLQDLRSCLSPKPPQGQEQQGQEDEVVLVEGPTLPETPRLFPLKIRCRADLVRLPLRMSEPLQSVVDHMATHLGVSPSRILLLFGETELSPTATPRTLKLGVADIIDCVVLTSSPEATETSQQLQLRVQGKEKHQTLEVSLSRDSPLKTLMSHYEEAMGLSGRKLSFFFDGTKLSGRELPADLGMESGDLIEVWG
UniProt Q9NX14, whole entry, looked up: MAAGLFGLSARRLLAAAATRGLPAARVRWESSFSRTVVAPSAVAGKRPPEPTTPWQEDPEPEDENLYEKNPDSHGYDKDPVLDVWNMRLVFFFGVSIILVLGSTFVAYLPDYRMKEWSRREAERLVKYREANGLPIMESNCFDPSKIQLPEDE
UniProt O94916: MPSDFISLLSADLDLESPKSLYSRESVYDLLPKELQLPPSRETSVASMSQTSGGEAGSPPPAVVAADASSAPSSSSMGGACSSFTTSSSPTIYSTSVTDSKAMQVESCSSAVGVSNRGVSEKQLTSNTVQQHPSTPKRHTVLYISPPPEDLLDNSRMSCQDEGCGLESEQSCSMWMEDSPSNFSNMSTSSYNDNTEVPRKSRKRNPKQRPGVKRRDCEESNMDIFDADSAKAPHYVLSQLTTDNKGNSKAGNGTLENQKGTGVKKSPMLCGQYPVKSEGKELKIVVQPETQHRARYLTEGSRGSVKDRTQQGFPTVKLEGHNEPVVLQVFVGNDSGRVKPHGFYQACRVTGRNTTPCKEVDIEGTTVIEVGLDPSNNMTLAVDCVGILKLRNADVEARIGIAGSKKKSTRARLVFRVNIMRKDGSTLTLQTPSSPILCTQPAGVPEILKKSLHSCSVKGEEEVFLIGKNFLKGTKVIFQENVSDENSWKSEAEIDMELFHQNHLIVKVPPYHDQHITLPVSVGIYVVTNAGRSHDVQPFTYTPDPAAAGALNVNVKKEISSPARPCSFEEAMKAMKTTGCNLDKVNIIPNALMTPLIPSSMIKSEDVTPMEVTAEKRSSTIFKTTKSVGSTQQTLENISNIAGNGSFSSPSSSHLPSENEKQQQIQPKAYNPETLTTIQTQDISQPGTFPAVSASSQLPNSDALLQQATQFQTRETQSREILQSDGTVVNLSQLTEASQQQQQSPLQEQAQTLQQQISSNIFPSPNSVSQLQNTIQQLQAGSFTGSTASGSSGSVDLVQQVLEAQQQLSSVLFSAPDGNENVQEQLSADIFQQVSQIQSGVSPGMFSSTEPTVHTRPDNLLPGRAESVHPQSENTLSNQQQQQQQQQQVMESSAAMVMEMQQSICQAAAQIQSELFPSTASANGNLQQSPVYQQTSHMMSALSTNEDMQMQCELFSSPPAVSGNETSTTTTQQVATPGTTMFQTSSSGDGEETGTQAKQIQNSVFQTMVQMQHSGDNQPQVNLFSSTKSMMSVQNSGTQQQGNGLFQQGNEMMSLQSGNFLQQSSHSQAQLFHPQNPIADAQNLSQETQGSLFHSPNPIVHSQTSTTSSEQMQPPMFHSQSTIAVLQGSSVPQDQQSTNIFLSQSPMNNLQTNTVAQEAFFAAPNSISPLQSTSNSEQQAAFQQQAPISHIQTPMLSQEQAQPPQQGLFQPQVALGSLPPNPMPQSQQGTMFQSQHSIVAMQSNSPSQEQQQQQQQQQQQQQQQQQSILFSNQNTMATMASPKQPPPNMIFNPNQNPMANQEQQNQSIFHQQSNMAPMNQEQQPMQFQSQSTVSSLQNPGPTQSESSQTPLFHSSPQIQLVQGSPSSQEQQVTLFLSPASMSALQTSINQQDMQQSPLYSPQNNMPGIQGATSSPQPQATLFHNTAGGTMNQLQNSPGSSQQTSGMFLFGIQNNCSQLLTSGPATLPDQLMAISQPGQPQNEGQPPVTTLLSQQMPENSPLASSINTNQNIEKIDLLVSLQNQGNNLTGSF
UniProt Q9NXR1: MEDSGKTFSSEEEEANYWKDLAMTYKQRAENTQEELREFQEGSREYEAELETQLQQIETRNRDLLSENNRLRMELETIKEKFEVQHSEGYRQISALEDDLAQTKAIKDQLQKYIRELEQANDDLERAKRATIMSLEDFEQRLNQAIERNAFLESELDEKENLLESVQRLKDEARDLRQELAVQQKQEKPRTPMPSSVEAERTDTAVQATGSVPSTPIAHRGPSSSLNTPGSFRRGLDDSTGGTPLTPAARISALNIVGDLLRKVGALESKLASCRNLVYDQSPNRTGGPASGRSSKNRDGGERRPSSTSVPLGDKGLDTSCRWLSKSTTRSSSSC
UniProt Q9NX02: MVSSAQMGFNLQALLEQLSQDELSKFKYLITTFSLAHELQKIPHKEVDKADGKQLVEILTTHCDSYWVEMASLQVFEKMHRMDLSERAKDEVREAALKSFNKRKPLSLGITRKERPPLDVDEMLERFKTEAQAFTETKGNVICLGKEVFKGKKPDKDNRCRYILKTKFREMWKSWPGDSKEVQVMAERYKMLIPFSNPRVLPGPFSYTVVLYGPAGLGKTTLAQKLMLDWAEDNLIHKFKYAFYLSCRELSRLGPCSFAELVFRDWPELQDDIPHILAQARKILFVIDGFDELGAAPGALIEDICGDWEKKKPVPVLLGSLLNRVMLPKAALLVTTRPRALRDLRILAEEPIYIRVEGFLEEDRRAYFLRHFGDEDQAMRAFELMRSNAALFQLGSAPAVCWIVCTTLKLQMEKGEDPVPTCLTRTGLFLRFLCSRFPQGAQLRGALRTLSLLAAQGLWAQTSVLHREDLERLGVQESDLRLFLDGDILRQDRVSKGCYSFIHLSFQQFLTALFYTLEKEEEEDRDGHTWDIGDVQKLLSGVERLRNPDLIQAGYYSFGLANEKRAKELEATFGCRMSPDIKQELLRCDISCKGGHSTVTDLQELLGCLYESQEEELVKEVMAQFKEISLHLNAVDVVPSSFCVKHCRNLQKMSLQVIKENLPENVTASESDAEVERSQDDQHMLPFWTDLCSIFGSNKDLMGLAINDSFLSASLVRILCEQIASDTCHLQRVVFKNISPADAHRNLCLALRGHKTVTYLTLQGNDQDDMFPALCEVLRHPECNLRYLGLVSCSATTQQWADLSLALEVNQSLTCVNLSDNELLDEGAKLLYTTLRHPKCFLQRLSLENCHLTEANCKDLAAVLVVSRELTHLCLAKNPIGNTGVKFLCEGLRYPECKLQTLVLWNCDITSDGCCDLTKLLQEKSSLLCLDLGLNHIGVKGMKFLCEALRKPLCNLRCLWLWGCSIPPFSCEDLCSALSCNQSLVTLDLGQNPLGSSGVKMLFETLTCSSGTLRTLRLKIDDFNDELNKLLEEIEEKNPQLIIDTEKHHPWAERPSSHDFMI
UniProt Q96IV0: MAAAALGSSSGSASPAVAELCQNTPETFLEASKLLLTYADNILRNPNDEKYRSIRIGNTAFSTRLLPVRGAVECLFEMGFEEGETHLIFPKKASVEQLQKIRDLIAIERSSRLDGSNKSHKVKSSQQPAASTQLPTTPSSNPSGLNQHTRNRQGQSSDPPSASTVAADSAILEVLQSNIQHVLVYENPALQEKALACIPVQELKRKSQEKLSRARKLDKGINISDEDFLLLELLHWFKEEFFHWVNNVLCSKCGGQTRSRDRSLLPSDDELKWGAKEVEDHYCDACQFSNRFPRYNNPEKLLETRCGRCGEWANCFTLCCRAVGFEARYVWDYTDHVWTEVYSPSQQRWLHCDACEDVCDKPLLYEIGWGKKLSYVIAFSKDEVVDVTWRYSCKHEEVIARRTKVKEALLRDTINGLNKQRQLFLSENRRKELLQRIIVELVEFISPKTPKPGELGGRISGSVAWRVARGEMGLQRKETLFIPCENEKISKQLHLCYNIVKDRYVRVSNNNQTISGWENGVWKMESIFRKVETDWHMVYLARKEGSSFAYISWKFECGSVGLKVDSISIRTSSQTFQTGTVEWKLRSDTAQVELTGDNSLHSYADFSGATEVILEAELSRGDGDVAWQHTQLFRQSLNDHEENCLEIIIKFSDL
UniProt Q9UMX5: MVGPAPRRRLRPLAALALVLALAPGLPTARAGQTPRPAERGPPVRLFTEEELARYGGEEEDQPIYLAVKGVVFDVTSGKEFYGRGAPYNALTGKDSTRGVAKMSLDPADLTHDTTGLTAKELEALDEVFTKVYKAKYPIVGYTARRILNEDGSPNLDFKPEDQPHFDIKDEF

Legend:
Experiment in all cases: log2 fold change, soluble protein after heating vs DMSO (PISA); higher = thermal stabilisation; K562 lysate, 10 uM; active = over 0.2 and 3.5 SD of the protein, either way, in both replicates (recomputed)
ibrutinib = compound: C=CC(=O)N1CCC[C@@H](n2nc(-c3ccc(Oc4ccccc4)cc3)c3c(N)ncnc32)C1 [ibrutinib]
In short: (§1)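 Soluble protein was defined as the supernatant remaining after 21,000xg for 90 min, following pooling of heated aliquots and adjustment to 0.5% NP-40 at 4°C. Before that, crude K562 extract at 1 mg/mL protein in PBS pH 7.4 with 1 mM MgCl2 was treated with 10 μM compound for 30 min and heated for 3 min across 48°C-58°C. Quantification used TMTpro 16plex LC-MS/MS with channel sums equalised, and values are log-two fold changes in thermal stability relative to solvent controls from duplicates.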

[1] = compound: CC(=O)c1cnc2ccc(-c3cc(Cl)c(O)c(Cl)c3)nc2c1N[C@H]1CC[C@H](CN(C)C)CC1
In short: as §1

ralimetinib = compound: CC(C)(C)Cn1c(N)nc2ccc(-c3[nH]c(C(C)(C)C)nc3-c3ccc(F)cc3)nc21 [ralimetinib]
In short: as §1

[2] = compound: CC(C)(O)CC(=O)NCCn1ccc2ncnc(Nc3ccc(Oc4cccc(C(F)(F)F)c4)c(Cl)c3)c21
In short: as §1

[3] = compound: CC(C)C1=C2N=C(C=C(N2N=C1)NCC3=CC=CC=C3)NCCCCCCN
In short: as §1

[4] = compound: CC1=C(C(CC(=O)N1)C2=CC=C(C=C2)C(F)(F)F)C(=O)NC3=C(C=C4C(=C3)C=NN4)F
In short: as §1

[5] = compound: CC1=C(C2=C(C=C1)C(=O)C3=CC=CC=C3N2CCCN)C
In short: as §1

[6] = compound: CC1=C(C=C(C=C1)NC(=O)C2=CC(=CC=C2)C(C)(C)C#N)NC3=CC4=C(C=C3)N=CN(C4=O)C
In short: as §1

[7] = compound: CC1=C(C=C(C=C1)NC(=O)C2=CC(=CC=C2)N(C)C)NC(=O)C3=CC=C(C=C3)O
In short: as §1

[8] = compound: CC1=CC=C(C=C1)SC2=C3C=C(SC3=CN=C2)C(=O)N
In short: as §1

vemurafenib = compound: CCCS(=O)(=O)Nc1ccc(F)c(C(=O)c2c[nH]c3ncc(-c4ccc(Cl)cc4)cc23)c1F [vemurafenib]
In short: as §1

[9] = compound: CCCS(=O)(=O)Nc1ccc(F)c(C(=O)c2c[nH]c3ncc(Cl)cc23)c1F
In short: as §1

barasertib = compound: CCN(CCCOc1ccc2c(Nc3cc(CC(=O)Nc4cccc(F)c4)[nH]n3)ncnc2c1)CCOP(=O)(O)O [barasertib]
In short: as §1

[10] = compound: CC[C@@H]1C(=O)N(C)c2cnc(Nc3ccc(C(=O)NC4CCN(C)CC4)cc3OC)nc2N1C1CCCC1
In short: as §1

volasertib = compound: CC[C@@H]1C(=O)N(C)c2cnc(Nc3ccc(C(=O)N[C@H]4CC[C@H](N5CCN(CC6CC6)CC5)CC4)cc3OC)nc2N1C(C)C [volasertib]
In short: as §1

[11] = compound: CCn1c(C(=O)N(C2CC2)C2CC2)cc2c3c(ncn3C)c(Nc3cc(C)n(C)n3)nc21
In short: as §1

[12] = compound: CCn1cc(-c2ccnc3[nH]c(-c4cccc(CN(C)C)c4)cc23)c(-c2ccc(NC(=O)N(C)C)cc2)n1
In short: as §1

[13] = compound: CN1CCC(CNc2ccc3ncc(-c4cccc(OC(F)(F)F)c4)n3n2)CC1
In short: as §1

saracatinib = compound: CN1CCN(CCOc2cc(OC3CCOCC3)c3c(Nc4c(Cl)ccc5c4OCO5)ncnc3c2)CC1 [saracatinib]
In short: as §1

sotrastaurin = compound: CN1CCN(c2nc(C3=C(c4c[nH]c5ccccc45)C(=O)NC3=O)c3ccccc3n2)CC1 [sotrastaurin]
In short: as §1

Measured: log2 fold change

NDUFB10 (UniProt O96000)
inactive: ibrutinib -0.004 | [1] 0.012 | ralimetinib -0.007 | [2] -0.02 | [3] -0.019 | [4] -0.005 | [5] 0 | [6] -0.004 | [7] -0.027 | [8] -0.005 | vemurafenib -0.021 | [9] 0.046 | barasertib 0.017 | [10] 0.034 | volasertib 0.006 | [11] -0.009 | [12] 0.012 | [13] -0.04 | saracatinib -0.001 | sotrastaurin 0.002

NDUFAF4 (UniProt Q9P032)
inactive: ibrutinib 0.015 | [1] 0.013 | ralimetinib -0.02 | [2] -0.033 | [3] 0.016 | [4] -0.003 | [5] 0.005 | [6] -0.006 | [7] -0.008 | [8] -0.007 | vemurafenib -0.029 | [9] 0.038 | barasertib 0.043 | [10] 0.016 | volasertib -0.001 | [11] 0.039 | [12] 0.182 | [13] -0.08 | saracatinib 0.011 | sotrastaurin -0.021

NDUFS3 (UniProt O75489)
inactive: ibrutinib -0.024 | [1] 0.013 | ralimetinib -0.008 | [2] -0.008 | [3] -0.016 | [4] 0.027 | [5] -0.006 | [6] -0.018 | [7] -0.004 | [8] 0.013 | vemurafenib -0.038 | [9] 0.014 | barasertib -0.003 | [10] 0.025 | volasertib 0.014 | [11] 0.026 | [12] 0.039 | [13] -0.07 | saracatinib -0.001 | sotrastaurin -0.017

NECTIN2 (UniProt Q92692)
inactive: ibrutinib 0.005 | [1] 0.007 | ralimetinib 0.001 | [2] -0.005 | [3] -0.016 | [4] -0.007 | [5] 0.005 | [6] -0.003 | [7] -0.015 | [8] -0.008 | vemurafenib 0.029 | [9] -0.028 | barasertib 0.009 | [10] 0.001 | volasertib 0.027 | [11] 0.038 | [12] 0 | [13] 0.029 | saracatinib 0.014 | sotrastaurin 0.019

NFATC1 (UniProt O95644)
inactive: ibrutinib 0.011 | [1] 0.06 | ralimetinib -0.004 | [2] -0.067 | [3] -0.038 | [4] 0.031 | [5] -0.047 | [6] 0.094 | [7] -0.015 | [8] -0.052 | vemurafenib 0.004 | [9] 0.058 | barasertib -0.015 | [10] 0.001 | volasertib 0 | [11] 0.007 | [12] -0.118 | [13] 0.064 | saracatinib 0.042 | sotrastaurin 0

NHP2 (UniProt Q9NX24)
inactive: ibrutinib -0.071 | [1] -0.038 | ralimetinib -0.025 | [2] -0.067 | [3] 0.008 | [4] -0.001 | [5] -0.015 | [6] -0.077 | [7] 0.017 | [8] -0.058 | vemurafenib -0.018 | [9] 0.037 | barasertib -0.022 | [10] 0.112 | volasertib 0.003 | [11] 0.013 | [12] -0.256 | [13] 0.07 | saracatinib -0.009 | sotrastaurin -0.001

NELFCD (UniProt Q8IXH7)
inactive: ibrutinib 0.039 | [1] 0.013 | ralimetinib 0.019 | [2] -0.043 | [3] 0.009 | [4] 0.007 | [5] 0.013 | [6] 0.011 | [7] 0.049 | [8] -0.02 | vemurafenib 0.014 | [9] 0.037 | barasertib 0.047 | [10] 0.006 | volasertib -0.032 | [11] 0.02 | [12] 0.089 | [13] -0.049 | saracatinib -0.005 | sotrastaurin 0.012

NFATC2IP (UniProt Q8NCF5)
inactive: ibrutinib 0.015 | [1] -0.037 | ralimetinib 0 | [2] -0.052 | [3] 0.01 | [4] -0.021 | [5] -0.019 | [6] -0.047 | [7] 0.013 | [8] 0.011 | vemurafenib -0.024 | [9] 0.069 | barasertib 0.041 | [10] 0.033 | volasertib 0.006 | [11] 0 | [12] 0.076 | [13] -0.031 | saracatinib 0.003 | sotrastaurin -0.004

NKAP (UniProt Q8N5F7)
inactive: ibrutinib 0.064 | [1] -0.2 | ralimetinib 0.035 | [2] -0.028 | [3] 0.017 | [4] 0.074 | [5] 0.02 | [6] 0.054 | [7] -0.011 | [8] 0.086 | vemurafenib 0.113 | [9] -0.093 | barasertib -0.045 | [10] 0.063 | volasertib -0.006 | [11] -0.001 | [12] 0.072 | [13] -0.02 | saracatinib 0.049 | sotrastaurin 0.015

NDUFB11 isoform 2 (UniProt Q9NX14)
inactive: ibrutinib 0.034 | [1] -0.021 | ralimetinib -0.005 | [2] -0.04 | [3] 0.02 | [4] -0.034 | [5] 0.02 | [6] 0.058 | [7] -0.011 | [8] -0.01 | vemurafenib 0.022 | [9] 0.019 | barasertib 0.138 | [10] 0.016 | volasertib 0.038 | [11] 0.028 | [12] -0.024 | [13] -0.068 | saracatinib -0.026 | sotrastaurin -0.074

NFAT5 isoform 5 (UniProt O94916)
inactive: ibrutinib -0.027 | [1] -0.029 | ralimetinib -0.017 | [2] 0.129 | [3] 0.003 | [4] 0.112 | [5] -0.008 | [6] -0.081 | [7] -0.004 | [8] 0.032 | vemurafenib 0.019 | [9] -0.007 | barasertib -0.041 | [10] 0.043 | volasertib -0.016 | [11] 0.042 | [12] -0.003 | [13] 0.044 | saracatinib 0.038 | sotrastaurin 0.044

NDE1 isoform 1 (UniProt Q9NXR1)
inactive: ibrutinib 0.023 | [1] -0.034 | ralimetinib 0.015 | [2] -0.035 | [3] -0.025 | [4] 0.01 | [5] -0.037 | [6] 0 | [7] -0.051 | [8] -0.037 | vemurafenib 0.054 | [9] 0.015 | barasertib 0.001 | [10] -0.007 | volasertib 0.035 | [11] 0.067 | [12] -0.085 | [13] 0.071 | saracatinib 0.059 | sotrastaurin 0.057

NLRP2 (UniProt Q9NX02)
inactive: ibrutinib -0.007 | [1] -0.007 | ralimetinib 0.036 | [2] 0.021 | [3] -0.008 | [4] 0.007 | [5] 0.009 | [6] 0.003 | [7] 0.021 | [8] 0.021 | vemurafenib -0.011 | [9] -0.003 | barasertib -0.04 | [10] -0.048 | volasertib -0.067 | [11] 0.041 | [12] 0.031 | [13] -0.05 | saracatinib -0.012 | sotrastaurin -0.017

NELFE (UniProt P18615)
inactive: ibrutinib -0.013 | [1] -0.018 | ralimetinib 0.013 | [2] -0.026 | [3] 0 | [4] -0.009 | [5] -0.012 | [6] 0.037 | [7] -0.014 | [8] -0.004 | vemurafenib -0.003 | [9] -0.002 | barasertib -0.018 | [10] 0.034 | volasertib 0.004 | [11] -0.021 | [12] 0 | [13] 0.001 | saracatinib 0.018 | sotrastaurin 0.014

NGLY1 (UniProt Q96IV0)
inactive: ibrutinib 0 | [1] -0.01 | ralimetinib 0.011 | [2] -0.008 | [3] 0.03 | [4] -0.001 | [5] -0.01 | [6] -0.006 | [7] 0.017 | [8] 0 | vemurafenib 0.015 | [9] 0.01 | barasertib 0.043 | [10] -0.102 | volasertib -0.034 | [11] 0.002 | [12] 0.09 | [13] -0.02 | saracatinib 0.013 | sotrastaurin 0.024

NENF (UniProt Q9UMX5)
inactive: ibrutinib 0.124 | [1] 0.005 | ralimetinib 0.022 | [2] -0.045 | [3] -0.027 | [4] -0.004 | [5] -0.022 | [6] 0.021 | [7] -0.003 | [8] 0.002 | vemurafenib -0.017 | [9] -0.018 | barasertib 0.183 | [10] 0.024 | volasertib 0.039 | [11] -0.034 | [12] 0.048 | [13] -0.048 | saracatinib 0.027 | sotrastaurin 0.015

Looked up one by one from above, 2 records:
NGLY1 (UniProt Q96IV0)
inactive: ibrutinib 0 | [1] -0.01 | ralimetinib 0.011 | [2] -0.008 | [3] 0.03 | [4] -0.001 | [5] -0.01 | [6] -0.006 | [7] 0.017 | [8] 0 | vemurafenib 0.015 | [9] 0.01 | barasertib 0.043 | [10] -0.102 | volasertib -0.034 | [11] 0.002 | [12] 0.09 | [13] -0.02 | saracatinib 0.013 | sotrastaurin 0.024

NDE1 isoform 1 (UniProt Q9NXR1)
inactive: ibrutinib 0.023 | [1] -0.034 | ralimetinib 0.015 | [2] -0.035 | [3] -0.025 | [4] 0.01 | [5] -0.037 | [6] 0 | [7] -0.051 | [8] -0.037 | vemurafenib 0.054 | [9] 0.015 | barasertib 0.001 | [10] -0.007 | volasertib 0.035 | [11] 0.067 | [12] -0.085 | [13] 0.071 | saracatinib 0.059 | sotrastaurin 0.057
